Measurements from PMC2679210, “Dpr Acts as a Molecular Switch, Inhibiting Wnt Signaling when Unphosphorylated, but Promoting Wnt Signaling when Phosphorylated by Casein Kinase Iδ/ε” (PLoS ONE, 2009).
These are yes or no findings as the source states them, for the method shown. In cells and extracts the contact can be indirect. Some results given as binding are weak or reduced against the parent protein; the word gives no strength. Sequences can lack the tags named with a protein.

Molecular target: T1, Xenopus Dapper1a (XDpr1a), Myc-tagged (Xenopus) (UniProt Q8QG92)
T1 sequence: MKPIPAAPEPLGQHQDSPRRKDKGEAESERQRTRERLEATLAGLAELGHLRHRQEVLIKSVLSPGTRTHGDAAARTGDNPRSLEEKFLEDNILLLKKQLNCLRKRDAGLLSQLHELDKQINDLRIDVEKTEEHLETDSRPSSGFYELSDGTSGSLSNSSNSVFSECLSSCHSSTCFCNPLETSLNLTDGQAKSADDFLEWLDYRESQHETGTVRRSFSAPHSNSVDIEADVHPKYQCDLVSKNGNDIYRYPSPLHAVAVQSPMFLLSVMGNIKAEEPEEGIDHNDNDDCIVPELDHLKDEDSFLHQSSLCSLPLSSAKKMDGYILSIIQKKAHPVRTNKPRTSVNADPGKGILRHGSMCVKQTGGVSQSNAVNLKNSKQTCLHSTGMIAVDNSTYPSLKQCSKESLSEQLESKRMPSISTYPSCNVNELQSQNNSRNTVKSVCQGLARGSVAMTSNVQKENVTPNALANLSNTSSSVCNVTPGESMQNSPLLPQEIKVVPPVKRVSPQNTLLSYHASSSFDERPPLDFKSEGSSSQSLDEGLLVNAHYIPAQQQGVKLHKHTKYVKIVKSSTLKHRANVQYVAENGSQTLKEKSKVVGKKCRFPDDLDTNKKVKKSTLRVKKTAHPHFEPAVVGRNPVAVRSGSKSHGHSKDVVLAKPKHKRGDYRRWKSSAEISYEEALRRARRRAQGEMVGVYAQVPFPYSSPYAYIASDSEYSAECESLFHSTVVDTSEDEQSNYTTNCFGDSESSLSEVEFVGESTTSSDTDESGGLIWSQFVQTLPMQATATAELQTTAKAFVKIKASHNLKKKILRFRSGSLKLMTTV
Assay: co-IP; in vitro coimmunoprecipitation: [35S]methionine-labeled Myc:XDpr1a immunoprecipitated with anti-Myc antibodies and protein A agarose, 2 hours at room temperature, from a reaction containing HA-tagged XDsh in the absence or presence of CKIδ; washed three times with 50 mM Tris-HCl pH 7.4, 137 mM NaCl; SDS-PAGE, autoradiography, PhosphorImager quantitation (n = 4 trials)

binding: binds
B1: Xenopus Dsh (XDsh), HA-tagged (protein, UniProt P51142 1-736)
chain: MAETKVIYHLDEEETPYLVKVPVPATDIRLRDFKAALGRGHAKYFFKAMDQDFGVVKEEISDDNAKLPCFNDRVVSWLASSEGSQPDSAPPAPATEVRPEPPPPVPPPIPPPPAERTSGIGDSRPPSFHPNVSGSTEQLDQDNESVISMRRDRVRRRESSEQAGVGRGVNGRTERHLSGYESSSTLLTSEIETSICDSEEDDTMSRFSSSTEQSSASRLLKRHRRRRKQRPPRLERTSSFSSVTDSTMSLNIITVTLNMEKYNFLGISIVGQSNERGDGGIYIGSIMKGGAVAADGRIEPGDMLLQVNDINFENMSNDDAVRVLRDIVHKPGPIVLTVAKCWDPSPQGYFTLPRNEPIHPIDPAAWVSHSAALSGSFPVYPGSASMSSMTSSTSVTETELSHALPPVSLFSLSVHTDLASVVKVMASPESGLEVRDRMWLKITIPNAFLGSDVVDWLYHHVEGFQDRREARKFASNLLKAGFIRHTVNKITFSEQCYYIFGDLTGCENYMTNLSLNDNDGSSGASDQDTLAPLPLPGASPWPLLPTFSYQYQAPHPYSTQPPAYHELSSYSYGMGSAGSQHSEGSRSSGSNRSDGGRGMQKDDRSGVAGVGGGDSKSGSGSESEYSTRSSIRRVGGGEAGPPSERSTSSRLPPHHPPSVHSYAAPGVPLSYNPMMLMMMPPPPLPPPGVCPPNSSVPPGAPPLVRDLASVPPELTATRQSFHMAMGNPSEFFVDVM
